Results are given in words; binding and its absence hold for the method and conditions named. Binding calls can cover weak binding; strength is not graded here.

The source of these data is patent US20220235132A1.

The experiment concerns the target human PD-1 monomer with mutations in the top of the loop labeled HDX mapped beta-hairpin (human). Kind of experiment: SPR with mutated human PD-1 monomer.

B1: APE12095 (3.7C6 anti-PD-1 antibody, ExpiCHO-S transient) (antibody, V domains shown)
VH: QVQLVQSGSELKKPGASVKVSCKASNYTFTDYSMHWVRQAPGQGLEWMGWINIETYYPTYADQFKGRFAFSLDTSVSTAYLQISSLKAEDTAVYYCARDYYGRFYYAMDYWGQGTTVTVSS
VL: EIVLTQSPATLSLSPGERATLSCTASSSVSSSYFHWYQQKPGQAPRLLIYSTSNLASGIPARFSGSGSGTDFTLTISRLEPEDFAVYYCHQYHRSPLTFGGGTKVEIKR
For the molecule B1, the binding result is reported as “binds”.
